# Measured values reported in article PMC7685970.
# Protein sequences, listed by entry. Tags and fused reporters are not part of them.
# UniProt P63330: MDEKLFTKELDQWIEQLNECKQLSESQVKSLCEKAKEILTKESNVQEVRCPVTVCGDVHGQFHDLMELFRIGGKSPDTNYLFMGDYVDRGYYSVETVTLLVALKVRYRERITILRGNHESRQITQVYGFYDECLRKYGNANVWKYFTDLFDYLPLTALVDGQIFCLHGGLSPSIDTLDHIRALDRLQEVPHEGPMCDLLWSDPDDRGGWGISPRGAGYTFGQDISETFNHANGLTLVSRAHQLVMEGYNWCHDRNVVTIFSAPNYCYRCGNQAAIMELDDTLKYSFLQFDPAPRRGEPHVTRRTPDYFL
# UniProt Q61937: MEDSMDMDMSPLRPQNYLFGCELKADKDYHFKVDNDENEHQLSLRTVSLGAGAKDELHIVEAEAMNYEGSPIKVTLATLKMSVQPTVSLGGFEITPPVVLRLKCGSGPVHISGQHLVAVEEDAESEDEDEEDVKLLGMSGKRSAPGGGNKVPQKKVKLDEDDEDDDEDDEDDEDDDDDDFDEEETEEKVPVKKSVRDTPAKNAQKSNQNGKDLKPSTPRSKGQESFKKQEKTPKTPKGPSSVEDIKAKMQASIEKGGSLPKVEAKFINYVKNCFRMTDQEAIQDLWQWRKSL
# UniProt Q9EQU5: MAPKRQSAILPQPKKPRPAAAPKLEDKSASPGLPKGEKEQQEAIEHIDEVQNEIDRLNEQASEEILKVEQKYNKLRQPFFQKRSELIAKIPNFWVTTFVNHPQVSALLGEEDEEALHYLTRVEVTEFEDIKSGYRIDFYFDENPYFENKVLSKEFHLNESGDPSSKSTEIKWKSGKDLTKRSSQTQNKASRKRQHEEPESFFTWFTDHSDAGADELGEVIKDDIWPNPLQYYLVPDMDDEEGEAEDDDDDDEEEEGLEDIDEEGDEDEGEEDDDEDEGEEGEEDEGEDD
# These are yes or no findings as the source states them, for the method shown. Binding seen in cells or lysates may run through a third protein. Some entries that bind do so weakly or less than the wild type.
# T1: Shwachman–Bodian–Diamond syndrome (SBDS) protein (mouse (endogenous in FDC.P1)) (UniProt P70122)
# T1 sequence: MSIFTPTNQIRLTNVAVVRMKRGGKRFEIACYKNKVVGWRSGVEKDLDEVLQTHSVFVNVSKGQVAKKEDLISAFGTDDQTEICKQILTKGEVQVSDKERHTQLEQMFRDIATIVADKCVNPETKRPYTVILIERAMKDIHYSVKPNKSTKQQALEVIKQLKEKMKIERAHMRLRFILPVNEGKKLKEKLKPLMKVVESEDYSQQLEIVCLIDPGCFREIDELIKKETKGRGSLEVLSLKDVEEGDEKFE
# How the values were obtained:
# [1] = target: T1, Shwachman–Bodian–Diamond syndrome (SBDS) protein (mouse (endogenous in FDC.P1)); test: co-IP; immunoprecipitation with SBDS antibody from c-KIT/D816V cells, Western blot
# [2] = target: catalytic subunit of PP2A, PP2Ac (PPP2CA) (mouse (endogenous in FDC.P1)) (UniProt P63330); test: co-IP; reciprocal immunoprecipitation with PP2Ac antibody (PP2Ac as bait) from c-KIT/D816V cells, Western blot
binding [1],binding [2],Molecule
binds,,"catalytic subunit of PP2A, PP2Ac (PPP2CA) (from UniProt P63330 1-309) (enzyme)"
binds,,nucleophosmin (NPM1) (from UniProt Q61937 1-292)

# The next lines start with the molecule.
Molecule,binding [1],binding [2]
SET (from UniProt Q9EQU5 1-289),binds,
"Shwachman–Bodian–Diamond syndrome (SBDS) protein (protein, UniProt P70122 1-250) MSIFTPTNQIRLTNVAVVRMKRGGKRFEIACYKNKVVGWRSGVEKDLDEVLQTHSVFVNVSKGQVAKKEDLISAFGTDDQTEICKQILTKGEVQVSDKERHTQLEQMFRDIATIVADKCVNPETKRPYTVILIERAMKDIHYSVKPNKSTKQQALEVIKQLKEKMKIERAHMRLRFILPVNEGKKLKEKLKPLMKVVESEDYSQQLEIVCLIDPGCFREIDELIKKETKGRGSLEVLSLKDVEEGDEKFE",,binds
